Sequences of proteins named here, by UniProt entry; tags and fusion partners are left off.
UniProt P84077: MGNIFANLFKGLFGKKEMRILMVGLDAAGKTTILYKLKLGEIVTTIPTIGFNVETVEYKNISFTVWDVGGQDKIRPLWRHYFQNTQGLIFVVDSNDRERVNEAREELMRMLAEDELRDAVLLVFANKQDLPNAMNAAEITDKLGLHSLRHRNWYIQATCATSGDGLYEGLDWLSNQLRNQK
UniProt P53621: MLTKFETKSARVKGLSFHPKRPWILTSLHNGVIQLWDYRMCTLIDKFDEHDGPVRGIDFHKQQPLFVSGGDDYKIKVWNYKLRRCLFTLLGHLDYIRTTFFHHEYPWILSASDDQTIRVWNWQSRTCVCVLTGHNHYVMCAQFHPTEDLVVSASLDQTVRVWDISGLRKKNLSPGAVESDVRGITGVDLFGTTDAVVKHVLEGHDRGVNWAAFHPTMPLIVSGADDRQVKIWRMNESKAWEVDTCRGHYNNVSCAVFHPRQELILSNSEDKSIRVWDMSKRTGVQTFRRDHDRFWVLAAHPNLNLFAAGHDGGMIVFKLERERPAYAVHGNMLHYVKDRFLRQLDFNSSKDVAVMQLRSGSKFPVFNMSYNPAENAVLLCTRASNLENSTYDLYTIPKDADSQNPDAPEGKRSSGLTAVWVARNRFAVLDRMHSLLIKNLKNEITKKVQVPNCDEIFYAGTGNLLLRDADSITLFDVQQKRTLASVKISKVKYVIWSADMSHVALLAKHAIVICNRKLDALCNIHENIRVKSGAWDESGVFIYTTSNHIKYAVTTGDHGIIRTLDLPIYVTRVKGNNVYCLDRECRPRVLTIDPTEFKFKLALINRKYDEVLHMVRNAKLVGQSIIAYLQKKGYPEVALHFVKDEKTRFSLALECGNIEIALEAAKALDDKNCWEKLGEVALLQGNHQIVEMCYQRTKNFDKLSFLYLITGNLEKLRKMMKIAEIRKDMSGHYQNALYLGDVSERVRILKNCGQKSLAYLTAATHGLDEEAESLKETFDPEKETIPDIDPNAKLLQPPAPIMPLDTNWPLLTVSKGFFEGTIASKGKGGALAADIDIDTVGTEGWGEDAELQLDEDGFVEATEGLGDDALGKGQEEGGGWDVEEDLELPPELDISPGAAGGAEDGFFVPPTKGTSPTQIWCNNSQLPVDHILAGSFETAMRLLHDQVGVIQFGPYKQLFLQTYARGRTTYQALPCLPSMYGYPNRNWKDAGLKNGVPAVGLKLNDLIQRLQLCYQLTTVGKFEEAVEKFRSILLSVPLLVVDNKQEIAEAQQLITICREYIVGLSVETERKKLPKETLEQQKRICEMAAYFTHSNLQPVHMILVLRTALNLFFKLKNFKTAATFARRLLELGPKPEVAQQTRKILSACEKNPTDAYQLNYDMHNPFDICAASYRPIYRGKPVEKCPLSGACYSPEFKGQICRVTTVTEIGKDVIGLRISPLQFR
UniProt P53618: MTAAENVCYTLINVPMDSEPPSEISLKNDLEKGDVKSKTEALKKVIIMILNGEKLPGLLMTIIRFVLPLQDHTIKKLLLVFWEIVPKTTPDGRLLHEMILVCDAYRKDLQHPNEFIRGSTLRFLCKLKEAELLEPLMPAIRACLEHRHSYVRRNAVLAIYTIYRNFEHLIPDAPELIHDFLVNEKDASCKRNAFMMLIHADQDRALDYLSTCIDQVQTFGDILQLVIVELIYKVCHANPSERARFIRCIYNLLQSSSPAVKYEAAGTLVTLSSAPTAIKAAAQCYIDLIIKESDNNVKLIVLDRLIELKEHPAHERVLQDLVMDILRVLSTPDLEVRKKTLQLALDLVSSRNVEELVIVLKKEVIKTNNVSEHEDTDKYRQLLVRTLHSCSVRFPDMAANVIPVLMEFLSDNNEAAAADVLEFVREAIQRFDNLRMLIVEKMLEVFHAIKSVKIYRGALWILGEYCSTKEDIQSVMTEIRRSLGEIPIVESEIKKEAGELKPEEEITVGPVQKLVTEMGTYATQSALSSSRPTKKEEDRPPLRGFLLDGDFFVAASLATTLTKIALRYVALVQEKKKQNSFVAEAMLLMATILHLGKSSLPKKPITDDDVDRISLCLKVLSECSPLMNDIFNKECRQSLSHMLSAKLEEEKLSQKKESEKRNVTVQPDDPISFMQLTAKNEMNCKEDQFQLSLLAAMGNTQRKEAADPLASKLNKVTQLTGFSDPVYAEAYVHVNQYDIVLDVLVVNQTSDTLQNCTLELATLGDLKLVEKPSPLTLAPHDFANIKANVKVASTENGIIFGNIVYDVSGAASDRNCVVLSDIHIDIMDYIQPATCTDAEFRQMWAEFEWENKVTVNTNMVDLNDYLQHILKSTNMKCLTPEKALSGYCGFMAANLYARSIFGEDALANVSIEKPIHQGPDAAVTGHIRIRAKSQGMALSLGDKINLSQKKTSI
UniProt Q9Y678: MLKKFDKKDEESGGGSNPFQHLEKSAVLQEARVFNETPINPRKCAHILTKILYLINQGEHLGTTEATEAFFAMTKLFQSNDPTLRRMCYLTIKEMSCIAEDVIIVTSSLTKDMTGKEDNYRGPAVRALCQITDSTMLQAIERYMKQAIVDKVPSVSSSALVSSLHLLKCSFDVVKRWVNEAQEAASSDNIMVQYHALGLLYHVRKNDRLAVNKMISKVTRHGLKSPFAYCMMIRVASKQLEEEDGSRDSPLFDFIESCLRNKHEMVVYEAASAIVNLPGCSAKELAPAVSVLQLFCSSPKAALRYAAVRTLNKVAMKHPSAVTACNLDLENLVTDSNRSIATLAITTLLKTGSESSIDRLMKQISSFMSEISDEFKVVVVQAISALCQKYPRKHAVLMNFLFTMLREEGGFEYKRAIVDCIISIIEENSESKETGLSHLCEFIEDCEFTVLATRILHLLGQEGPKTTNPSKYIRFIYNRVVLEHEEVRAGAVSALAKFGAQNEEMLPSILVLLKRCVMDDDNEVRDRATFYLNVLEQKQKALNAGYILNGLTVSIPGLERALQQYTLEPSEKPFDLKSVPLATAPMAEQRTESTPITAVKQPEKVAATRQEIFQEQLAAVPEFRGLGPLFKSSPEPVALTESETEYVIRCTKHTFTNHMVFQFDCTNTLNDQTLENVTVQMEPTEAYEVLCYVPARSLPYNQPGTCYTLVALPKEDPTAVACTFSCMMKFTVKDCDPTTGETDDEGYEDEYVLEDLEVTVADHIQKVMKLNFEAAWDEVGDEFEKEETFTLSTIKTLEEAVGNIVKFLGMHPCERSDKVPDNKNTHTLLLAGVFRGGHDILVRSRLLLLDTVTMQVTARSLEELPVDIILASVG
UniProt Q99627: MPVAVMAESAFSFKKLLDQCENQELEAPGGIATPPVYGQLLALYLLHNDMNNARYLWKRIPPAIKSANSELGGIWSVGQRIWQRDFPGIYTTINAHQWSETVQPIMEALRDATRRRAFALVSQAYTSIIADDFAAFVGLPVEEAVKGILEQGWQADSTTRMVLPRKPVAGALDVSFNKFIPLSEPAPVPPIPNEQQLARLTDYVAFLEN

According to paper doi:10.1101/2023.04.28.23289152:

B1: COPB2 (protein, UniProt P35606 1-906)
chain: MPLRLDIKRKLTARSDRVKSVDLHPTEPWMLASLYNGSVCVWNHETQTLVKTFEVCDLPVRAAKFVARKNWVVTGADDMQIRVFNYNTLERVHMFEAHSDYIRCIAVHPTQPFILTSSDDMLIKLWDWDKKWSCSQVFEGHTHYVMQIVINPKDNNQFASASLDRTIKVWQLGSSSPNFTLEGHEKGVNCIDYYSGGDKPYLISGADDRLVKIWDYQNKTCVQTLEGHAQNVSCASFHPELPIIITGSEDGTVRIWHSSTYRLESTLNYGMERVWCVASLRGSNNVALGYDEGSIIVKLGREEPAMSMDANGKIIWAKHSEVQQANLKAMGDAEIKDGERLPLAVKDMGSCEIYPQTIQHNPNGRFVVVCGDGEYIIYTAMALRNKSFGSAQEFAWAHDSSEYAIRESNSIVKIFKNFKEKKSFKPDFGAESIYGGFLLGVRSVNGLAFYDWDNTELIRRIEIQPKHIFWSDSGELVCIATEESFFILKYLSEKVLAAQETHEGVTEDGIEDAFEVLGEIQEIVKTGLWVGDCFIYTSSVNRLNYYVGGEIVTIAHLDRTMYLLGYIPKDNRLYLGDKELNIISYSLLVSVLEYQTAVMRRDFSMADKVLPTIPKEQRTRVAHFLEKQGFKQQALTVSTDPEHRFELALQLGELKIAYQLAVEAESEQKWKQLAELAISKCQFGLAQECLHHAQDYGGLLLLATASGNANMVNKLAEGAERDGKNNVAFMSYFLQGKVDACLELLIRTGRLPEAAFLARTYLPSQVSRVVKLWRENLSKVNQKAAESLADPTEYENLFPGLKEAFVVEEWVKETHADLWPAKQYPLVTPNEERNVMEEGKDFQPSRSTAQQELDGKPASPTPVIVASHTANKEEKSLLELEVDLDNLELEDIDTTDINLDEDILDD
B2: COPD/ARCN1 (protein, UniProt P48444 1-511)
chain: MVLLAAAVCTKAGKAIVSRQFVEMTRTRIEGLLAAFPKLMNTGKQHTFVETESVRYVYQPMEKLYMVLITTKNSNILEDLETLRLFSRVIPEYCRALEENEISEHCFDLIFAFDEIVALGYRENVNLAQIRTFTEMDSHEEKVFRAVRETQEREAKAEMRRKAKELQQARRDAERQGKKAPGFGGFGSSAVSGGSTAAMITETIIETDKPKVAPAPARPSGPSKALKLGAKGKEVDNFVDKLKSEGETIMSSSMGKRTSEATKMHAPPINMESVHMKIEEKITLTCGRDGGLQNMELHGMIMLRISDDKYGRIRLHVENEDKKGVQLQTHPNVDKKLFTAESLIGLKNPEKSFPVNSDVGVLKWRLQTTEESFIPLTINCWPSESGNGCDVNIEYELQEDNLELNDVVITIPLPSGVGAPVIGEIDGEYRHDSRRNTLEWCLPVIDAKNKSGSLEFSIAGQPNDFFPVQVSFVSKKNYCNIQVTKVTQVDGNSPVRFSTETTFLVDKYEIL
B3: COPG2 (protein, UniProt Q9UBF2 1-871)
chain: MIKKFDKKDEESGSGSNPFQHLEKSAVLQEARIFNETPINPRRCLHILTKILYLLNQGEHFGTTEATEAFFAMTRLFQSNDQTLRRMCYLTIKEMATISEDVIIVTSSLTKDMTGKEDVYRGPAIRALCRITDGTMLQAIERYMKQAIVDKVSSVSSSALVSSLHMMKISYDVVKRWINEAQEAASSDNIMVQYHALGVLYHLRKNDRLAVSKMLNKFTKSGLKSQFAYCMLIRIASRLLKETEDGHESPLFDFIESCLRNKHEMVIYEAASAIIHLPNCTARELAPAVSVLQLFCSSPKPALRYAAVRTLNKVAMKHPSAVTACNLDLENLITDSNRSIATLAITTLLKTGSESSVDRLMKQISSFVSEISDEFKVVVVQAISALCQKYPRKHSVMMTFLSNMLRDDGGFEYKRAIVDCIISIVEENPESKEAGLAHLCEFIEDCEHTVLATKILHLLGKEGPRTPVPSKYIRFIFNRVVLENEAVRAAAVSALAKFGAQNESLLPSILVLLQRCMMDTDDEVRDRATFYLNVLQQRQMALNATYIFNGLTVSVPGMEKALHQYTLEPSEKPFDMKSIPLAMAPVFEQKAEITLVATKPEKLAPSRQDIFQEQLAAIPEFLNIGPLFKSSEPVQLTEAETEYFVRCIKHMFTNHIVFQFDCTNTLNDQLLEKVTVQMEPSDSYEVLSCIPAPSLPYNQPGICYTLVRLPDDDPTAVAGSFSCTMKFTVRDCDPNTGVPDEDGYDDEYVLEDLEVTVSDHIQKVLKPNFAAAWEEVGDTFEKEETFALSSTKTLEEAVNNIITFLGMQPCERSDKVPENKNSHSLYLAGIFRGGYDLLVRSRLALADGVTMQVTVRSKERTPVDVILASVG

Each molecule was assayed against ARF1 WT (pCMV6-hARF1-myc-FLAG) (human) (UniProt P84077) (assay: affinity purification with mass spectrometry).

Molecule | binding
coatomer protein subunit alpha (COPA) (from UniProt P53621 1-1224) | binds
COPB1 (from UniProt P53618 1-953) | binds
COPG1 (from UniProt Q9Y678 1-874) | binds
COPS8 (from UniProt Q99627 1-209) | binds
B1 | binds
B2 | binds
B3 | binds

Results are given in words; binding and its absence hold for the method and conditions named. Binding seen in cells or lysates may run through a third protein. A yes stands for co-enrichment or nearness to the bait. Other partners may have been found.
